Reference: the supplement of paper PMC6411743
± gives the standard deviation of the averaged measurements. The list shows a part of the results, in another mix than the full data. Small differences around the control level are noise.

Protein sequences, listed by entry. Tags and fused reporters are not part of them. Lines headed by an entry give the natural chain unless they say otherwise; changes in a name come on top.
UniProt Q13428: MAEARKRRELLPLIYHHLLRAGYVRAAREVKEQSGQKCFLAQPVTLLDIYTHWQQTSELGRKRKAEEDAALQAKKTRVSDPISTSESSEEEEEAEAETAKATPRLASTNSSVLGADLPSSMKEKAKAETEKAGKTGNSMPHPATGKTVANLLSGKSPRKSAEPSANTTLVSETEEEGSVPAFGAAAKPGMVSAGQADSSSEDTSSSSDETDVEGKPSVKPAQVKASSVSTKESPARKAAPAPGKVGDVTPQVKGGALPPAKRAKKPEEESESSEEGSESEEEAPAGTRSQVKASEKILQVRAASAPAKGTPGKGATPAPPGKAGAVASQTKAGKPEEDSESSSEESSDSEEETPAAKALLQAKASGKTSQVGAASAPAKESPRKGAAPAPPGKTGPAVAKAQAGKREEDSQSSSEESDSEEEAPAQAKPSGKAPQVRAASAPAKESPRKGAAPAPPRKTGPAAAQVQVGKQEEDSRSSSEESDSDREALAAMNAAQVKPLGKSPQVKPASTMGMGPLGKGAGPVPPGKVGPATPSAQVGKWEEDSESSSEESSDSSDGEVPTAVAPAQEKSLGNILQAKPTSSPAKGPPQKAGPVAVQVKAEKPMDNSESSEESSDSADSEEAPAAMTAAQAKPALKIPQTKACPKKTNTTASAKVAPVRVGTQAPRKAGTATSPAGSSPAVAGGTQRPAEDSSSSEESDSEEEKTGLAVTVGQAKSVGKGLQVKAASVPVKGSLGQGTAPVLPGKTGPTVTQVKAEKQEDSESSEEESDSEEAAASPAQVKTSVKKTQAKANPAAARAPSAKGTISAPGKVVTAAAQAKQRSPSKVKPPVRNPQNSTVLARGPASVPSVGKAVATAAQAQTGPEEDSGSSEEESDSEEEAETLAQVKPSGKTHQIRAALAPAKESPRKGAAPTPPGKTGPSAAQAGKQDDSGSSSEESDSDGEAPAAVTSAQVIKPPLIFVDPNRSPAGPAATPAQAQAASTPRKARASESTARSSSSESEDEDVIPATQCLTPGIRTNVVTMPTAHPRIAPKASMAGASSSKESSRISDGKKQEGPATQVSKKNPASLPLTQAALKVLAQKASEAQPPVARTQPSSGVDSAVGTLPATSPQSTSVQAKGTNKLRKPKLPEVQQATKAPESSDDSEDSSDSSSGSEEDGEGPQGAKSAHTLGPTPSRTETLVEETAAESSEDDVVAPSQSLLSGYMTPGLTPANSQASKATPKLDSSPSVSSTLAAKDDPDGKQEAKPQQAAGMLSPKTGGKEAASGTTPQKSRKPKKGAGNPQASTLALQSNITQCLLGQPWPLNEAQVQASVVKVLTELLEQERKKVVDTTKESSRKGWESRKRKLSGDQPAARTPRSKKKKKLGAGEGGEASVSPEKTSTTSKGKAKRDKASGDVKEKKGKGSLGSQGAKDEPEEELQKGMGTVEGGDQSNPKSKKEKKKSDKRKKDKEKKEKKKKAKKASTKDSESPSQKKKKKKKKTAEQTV
UniProt Q13490, whole entry: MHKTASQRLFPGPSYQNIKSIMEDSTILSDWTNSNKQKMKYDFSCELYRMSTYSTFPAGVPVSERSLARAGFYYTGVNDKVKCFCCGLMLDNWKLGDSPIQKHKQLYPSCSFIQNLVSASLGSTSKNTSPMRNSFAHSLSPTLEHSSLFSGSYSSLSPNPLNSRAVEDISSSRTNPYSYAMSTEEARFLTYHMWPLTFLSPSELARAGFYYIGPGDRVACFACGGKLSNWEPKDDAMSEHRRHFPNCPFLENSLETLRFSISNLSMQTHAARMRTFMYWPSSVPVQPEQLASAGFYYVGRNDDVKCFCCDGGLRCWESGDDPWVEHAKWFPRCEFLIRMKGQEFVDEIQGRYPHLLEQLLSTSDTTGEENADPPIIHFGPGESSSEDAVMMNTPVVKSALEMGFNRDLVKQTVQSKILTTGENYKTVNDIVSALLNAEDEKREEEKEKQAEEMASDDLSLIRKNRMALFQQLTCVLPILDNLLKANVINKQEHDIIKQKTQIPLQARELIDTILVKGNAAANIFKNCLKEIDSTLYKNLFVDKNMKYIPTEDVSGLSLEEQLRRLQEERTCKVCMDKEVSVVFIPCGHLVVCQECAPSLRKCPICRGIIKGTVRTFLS
UniProt P60660, whole entry: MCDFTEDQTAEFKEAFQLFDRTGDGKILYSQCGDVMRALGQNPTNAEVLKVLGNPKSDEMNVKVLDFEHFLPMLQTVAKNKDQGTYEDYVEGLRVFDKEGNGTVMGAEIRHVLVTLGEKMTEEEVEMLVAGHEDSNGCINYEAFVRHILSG
UniProt Q9H3S4: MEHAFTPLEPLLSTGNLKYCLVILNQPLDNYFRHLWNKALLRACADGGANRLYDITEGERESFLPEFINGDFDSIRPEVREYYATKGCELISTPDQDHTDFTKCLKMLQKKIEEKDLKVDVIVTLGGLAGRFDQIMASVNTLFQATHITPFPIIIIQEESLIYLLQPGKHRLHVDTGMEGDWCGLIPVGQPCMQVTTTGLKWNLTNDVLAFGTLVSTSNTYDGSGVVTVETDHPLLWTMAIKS
UniProt Q9Y6C9: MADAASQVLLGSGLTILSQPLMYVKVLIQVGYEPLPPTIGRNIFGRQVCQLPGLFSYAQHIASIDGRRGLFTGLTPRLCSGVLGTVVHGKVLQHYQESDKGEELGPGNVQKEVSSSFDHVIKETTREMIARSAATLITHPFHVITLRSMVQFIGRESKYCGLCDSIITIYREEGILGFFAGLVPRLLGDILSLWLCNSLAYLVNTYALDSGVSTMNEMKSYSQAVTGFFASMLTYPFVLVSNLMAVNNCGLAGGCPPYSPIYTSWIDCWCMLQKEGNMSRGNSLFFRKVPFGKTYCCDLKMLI
UniProt P98171: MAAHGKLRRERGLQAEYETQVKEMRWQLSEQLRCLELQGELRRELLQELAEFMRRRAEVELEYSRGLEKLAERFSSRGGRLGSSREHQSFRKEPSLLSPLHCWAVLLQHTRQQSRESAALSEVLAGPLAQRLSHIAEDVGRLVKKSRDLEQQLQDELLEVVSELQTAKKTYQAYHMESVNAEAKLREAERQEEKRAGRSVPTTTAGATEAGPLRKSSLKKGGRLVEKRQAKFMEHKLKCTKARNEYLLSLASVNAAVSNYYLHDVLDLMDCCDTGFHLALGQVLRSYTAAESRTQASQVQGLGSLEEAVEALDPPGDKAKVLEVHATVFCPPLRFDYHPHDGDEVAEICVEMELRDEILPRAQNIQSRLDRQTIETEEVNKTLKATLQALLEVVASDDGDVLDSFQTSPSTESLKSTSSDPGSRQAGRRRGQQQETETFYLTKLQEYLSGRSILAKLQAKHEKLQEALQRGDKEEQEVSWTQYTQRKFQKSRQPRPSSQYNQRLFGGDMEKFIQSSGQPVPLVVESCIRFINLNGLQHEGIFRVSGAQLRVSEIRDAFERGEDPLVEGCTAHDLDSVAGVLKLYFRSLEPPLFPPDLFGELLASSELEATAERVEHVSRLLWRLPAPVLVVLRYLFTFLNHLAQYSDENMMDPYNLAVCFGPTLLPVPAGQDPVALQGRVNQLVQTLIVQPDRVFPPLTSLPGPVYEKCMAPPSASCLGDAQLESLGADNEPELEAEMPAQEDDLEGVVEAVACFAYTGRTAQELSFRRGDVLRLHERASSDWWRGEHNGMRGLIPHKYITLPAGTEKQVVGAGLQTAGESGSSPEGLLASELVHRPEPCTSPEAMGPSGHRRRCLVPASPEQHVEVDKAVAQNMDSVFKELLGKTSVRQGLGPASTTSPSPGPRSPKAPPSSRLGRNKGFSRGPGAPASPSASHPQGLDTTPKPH
UniProt O95249: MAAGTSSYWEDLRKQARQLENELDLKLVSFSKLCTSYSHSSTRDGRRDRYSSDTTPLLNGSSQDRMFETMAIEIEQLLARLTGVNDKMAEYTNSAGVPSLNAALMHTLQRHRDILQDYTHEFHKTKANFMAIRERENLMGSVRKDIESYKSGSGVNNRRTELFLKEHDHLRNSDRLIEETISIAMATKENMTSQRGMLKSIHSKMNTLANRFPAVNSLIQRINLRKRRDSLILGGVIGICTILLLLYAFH
UniProt O43674, whole entry: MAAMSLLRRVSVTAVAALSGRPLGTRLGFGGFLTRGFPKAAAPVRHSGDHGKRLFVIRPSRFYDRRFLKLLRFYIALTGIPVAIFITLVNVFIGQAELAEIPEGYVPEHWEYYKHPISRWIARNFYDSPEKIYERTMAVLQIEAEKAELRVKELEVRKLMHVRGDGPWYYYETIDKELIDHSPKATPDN
UniProt Q96RT7, whole entry: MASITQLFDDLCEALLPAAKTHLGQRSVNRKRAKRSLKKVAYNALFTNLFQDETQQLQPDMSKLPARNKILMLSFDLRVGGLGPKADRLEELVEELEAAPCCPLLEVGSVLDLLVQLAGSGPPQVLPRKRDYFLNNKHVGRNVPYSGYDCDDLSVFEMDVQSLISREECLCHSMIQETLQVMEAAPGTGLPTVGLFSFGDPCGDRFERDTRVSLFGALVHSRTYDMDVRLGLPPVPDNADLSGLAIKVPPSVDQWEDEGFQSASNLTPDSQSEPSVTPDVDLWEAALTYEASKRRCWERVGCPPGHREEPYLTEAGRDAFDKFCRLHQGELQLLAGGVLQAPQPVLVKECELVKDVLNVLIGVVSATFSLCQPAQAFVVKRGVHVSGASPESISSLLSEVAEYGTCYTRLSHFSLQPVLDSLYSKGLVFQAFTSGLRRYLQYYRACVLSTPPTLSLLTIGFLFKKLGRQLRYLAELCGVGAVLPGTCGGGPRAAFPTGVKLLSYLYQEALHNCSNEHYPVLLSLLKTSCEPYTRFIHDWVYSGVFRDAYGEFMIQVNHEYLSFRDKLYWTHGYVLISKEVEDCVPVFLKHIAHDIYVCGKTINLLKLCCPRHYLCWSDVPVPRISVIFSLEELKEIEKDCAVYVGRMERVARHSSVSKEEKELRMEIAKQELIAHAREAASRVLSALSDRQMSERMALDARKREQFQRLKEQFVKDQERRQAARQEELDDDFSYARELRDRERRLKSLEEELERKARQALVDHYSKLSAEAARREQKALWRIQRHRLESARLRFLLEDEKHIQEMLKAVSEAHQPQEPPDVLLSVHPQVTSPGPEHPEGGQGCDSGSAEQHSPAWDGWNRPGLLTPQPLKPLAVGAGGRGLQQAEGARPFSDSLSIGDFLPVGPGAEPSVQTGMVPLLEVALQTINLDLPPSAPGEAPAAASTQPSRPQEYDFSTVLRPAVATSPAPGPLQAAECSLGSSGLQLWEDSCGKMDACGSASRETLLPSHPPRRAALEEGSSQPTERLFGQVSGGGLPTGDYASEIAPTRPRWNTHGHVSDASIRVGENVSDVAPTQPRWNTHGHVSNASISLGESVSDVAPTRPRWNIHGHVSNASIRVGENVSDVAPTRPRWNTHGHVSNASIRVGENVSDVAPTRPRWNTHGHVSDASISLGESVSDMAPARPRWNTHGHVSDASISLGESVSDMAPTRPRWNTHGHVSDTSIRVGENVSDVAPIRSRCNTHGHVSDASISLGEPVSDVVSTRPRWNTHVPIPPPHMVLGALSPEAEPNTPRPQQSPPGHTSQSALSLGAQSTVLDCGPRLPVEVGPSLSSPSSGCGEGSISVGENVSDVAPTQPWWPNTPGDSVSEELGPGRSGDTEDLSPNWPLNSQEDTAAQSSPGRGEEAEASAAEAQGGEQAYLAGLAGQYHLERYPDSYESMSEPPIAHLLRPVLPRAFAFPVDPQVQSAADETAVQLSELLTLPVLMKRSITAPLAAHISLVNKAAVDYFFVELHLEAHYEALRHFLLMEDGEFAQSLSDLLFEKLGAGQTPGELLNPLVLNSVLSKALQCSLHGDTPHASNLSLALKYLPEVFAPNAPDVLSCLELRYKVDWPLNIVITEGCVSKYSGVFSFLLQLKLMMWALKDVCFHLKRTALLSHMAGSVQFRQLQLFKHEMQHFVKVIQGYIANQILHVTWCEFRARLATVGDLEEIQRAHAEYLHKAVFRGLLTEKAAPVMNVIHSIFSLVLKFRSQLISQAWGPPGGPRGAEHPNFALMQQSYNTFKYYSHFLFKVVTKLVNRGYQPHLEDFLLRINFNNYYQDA
UniProt O00193: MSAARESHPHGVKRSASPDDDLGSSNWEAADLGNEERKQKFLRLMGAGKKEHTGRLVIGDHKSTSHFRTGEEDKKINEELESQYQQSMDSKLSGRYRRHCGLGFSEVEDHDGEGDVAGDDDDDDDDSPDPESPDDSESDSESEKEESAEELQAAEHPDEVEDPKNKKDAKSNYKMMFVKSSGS
UniProt P62873, whole entry: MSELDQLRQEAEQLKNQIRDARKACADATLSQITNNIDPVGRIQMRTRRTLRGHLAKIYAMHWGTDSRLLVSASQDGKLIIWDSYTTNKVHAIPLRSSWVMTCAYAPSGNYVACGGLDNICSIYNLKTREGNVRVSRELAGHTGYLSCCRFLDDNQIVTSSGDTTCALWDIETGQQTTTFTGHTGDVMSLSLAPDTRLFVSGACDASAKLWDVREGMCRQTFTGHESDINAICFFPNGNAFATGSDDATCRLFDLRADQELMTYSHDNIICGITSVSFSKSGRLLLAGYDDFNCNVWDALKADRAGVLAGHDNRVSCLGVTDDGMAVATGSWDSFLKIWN

Compound: Nc1ncnc2c1ncn2[C@@H]1O[C@H](COP(=O)(O)OP(=O)(O)OP(=O)(O)O)[C@@H](O)[C@H]1O [adenosine triphosphate]
Experiment: NP40-soluble protein abundance relative to vehicle (solubility fold change) (ratio); higher = more soluble protein in presence of ATP
Method in brief: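 Eight concentrations, 0.1 to 10 mM, were tested on Jurkat crude lysate for 10 min at room temperature and then 3 min at 37 °C, in three independent experiments. The lysate was solubilised with 0.8% NP40 and benzonase, ultracentrifuged, and the supernatant TMT-labelled for LC-MS/MS. Each value is the fold change against the detergent-processed vehicle in its own replicate, from vsn-normalised intensities.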

Row | Target | NP40-soluble protein abundance (concentration: 0.1mM) | NP40-soluble protein abundance (concentration: 0.5mM)
1 | E7ETY2 and related entries (UniProt Q13428) | 1.07 ± 0.047 | 1.18 ± 0.068
2 | E9PMH5 and related entries (UniProt Q13490) | 1.04 ± 0.13 | 1.05 ± 0.065
3 | F5H702 and related entries (UniProt Q96GC5) | 0.996 ± 0.048 | 1.04 ± 0.062
4 | E9PE19 and related entries (UniProt Q12830) | 0.985 ± 0.02 | 1.01 ± 0.079
5 | UniProt G3V599 | 0.971 ± 0.0096 | 0.969 ± 0.022
6 | E9PIM6 and related entries (UniProt P04216) | 0.831 ± 0.021 | 0.897 ± 0.16
7 | G3V1V0 and related entries (UniProt P60660) | 0.863 ± 0.13 | 0.863 ± 0.14
8 | F5GZG6 and related entries (UniProt Q9H3S4) | 1.039 ± 0.0073 | 0.955 ± 0.058
9 | E9PS00 and related entries (UniProt Q9Y5Q0) | 1.08 ± 0.17 | 1.14 ± 0.051
10 | F8VX10 and related entries (UniProt Q9H9L4) | 0.965 ± 0.069 | 1 ± 0.057
11 | E7ESG2 and related entries (UniProt Q9HAW4) | 1.02 ± 0.04 | 1.01 ± 0.048
12 | E9PIE4 and related entries (UniProt Q9Y6C9) | 1.04 ± 0.036 | 1 ± 0.071
13 | F8VXG7 and related entries (UniProt Q99590) | 1.04 ± 0.045 | 1.26 ± 0.069
14 | E9PK80 and related entries (UniProt Q9NTG7) | 0.921 ± 0.013 | 0.92136 ± 0.00017
15 | E7EQN5 and related entries (UniProt P98171) | 1.02 ± 0.012 | 1.02 ± 0.033
16 | F5H4V9 and related entries (UniProt Q16342) | 0.951 ± 0.05 | 0.962 ± 0.042
17 | E9PCW1 and related entries (UniProt O95249) | 0.952 ± 0.051 | 0.935 ± 0.072
18 | E7EWP0 and related entries (UniProt O43674) | 0.905 ± 0.042 | 0.905 ± 0.048
19 | E7EQL8 and related entries (UniProt Q96RT7) | 0.965 ± 0.15 | 0.973 ± 0.15
20 | E9PRF4 and related entries (UniProt Q15047) | 1.06 ± 0.025 | 1.02 ± 0.076
21 | E5KP25 and related entries (UniProt Q9UIF7) | 0.951 ± 0.044 | 0.957 ± 0.046
22 | F8WEA6 and related entries (UniProt O75439) | 1 ± 0.06 | 1.05 ± 0.089
23 | E9PM92 and related entries (UniProt O00193+E9PM92) | 0.816 ± 0.14 | 0.799 ± 0.096
24 | F6X3N5 and related entries (UniProt P62873) | 1.02 ± 0.017 | 0.985 ± 0.018
25 | E7EPN9 and related entries (UniProt Q9Y520) | 0.971 ± 0.026 | 1.02 ± 0.013
26 | E2QRB3 and related entries (UniProt P32322) | 0.989 ± 0.015 | 1.01 ± 0.035

Whole records from above. Order of values: NP40-soluble protein abundance (concentration: 0.1mM)	NP40-soluble protein abundance (concentration: 0.5mM)
E7EWP0 and related entries (UniProt O43674) is listed as 0.905 ± 0.042	0.905 ± 0.048
E9PS00 and related entries (UniProt Q9Y5Q0) is listed as 1.08 ± 0.17	1.14 ± 0.051
